{
  "source": "paper PMC8213057",
  "about": "“Targeting ALK2: An Open Science Approach to Developing Therapeutics for the Treatment of Diffuse Intrinsic Pontine Glioma” (Journal of Medicinal Chemistry, 2020)",
  "key": {"CDK17/cyclin Y (PCTK2)": {"target": "CDK17/cyclin Y (PCTK2) (Homo sapiens, UniProt Q00537)", "details": "1 μM; Run 1, Run 2"}, "MAST3": {"target": "MAST3 (Homo sapiens, UniProt O60307)", "details": "1 μM; Run 1, Run 2"}, "EPHA2": {"target": "EPHA2 (Homo sapiens, UniProt P29317)", "details": "1 μM; Run 1, Run 2"}, "EPHA6": {"target": "EPHA6 (Homo sapiens, UniProt Q9UF33)", "assay": "biochemical", "details": "read-out: % enzyme activity, 1 μM; Run 1, Run 2"}, "SRMS": {"target": "SRMS (Homo sapiens, UniProt Q9H3Y6)", "details": "1 μM; Run 1, Run 2"}, "MLK2/MAP3K10 [1]": {"target": "T1, MLK2/MAP3K10 (Homo sapiens, UniProt Q02779)", "assay": "biochemical", "details": "read-out: % enzyme activity, 1 μM; Run 1, Run 2"}, "AKT2": {"target": "AKT2 (Homo sapiens, UniProt P31751)", "details": "1 μM; Run 1, Run 2"}, "CDK6/cyclin D3": {"target": "CDK6/cyclin D3 (Homo sapiens, UniProt Q00534)", "assay": "biochemical", "details": "read-out: % enzyme activity, 1 μM; Run 1, Run 2"}, "JNK2": {"target": "JNK2 (Homo sapiens, UniProt P45984)", "assay": "biochemical", "details": "read-out: % enzyme activity, 1 μM; Run 1, Run 2"}, "DLK/MAP3K12": {"target": "DLK/MAP3K12 (Homo sapiens, UniProt Q12852)", "details": "1 μM; Run 1, Run 2"}, "MARK4": {"target": "MARK4 (Homo sapiens, UniProt Q96L34)", "assay": "biochemical", "details": "read-out: % enzyme activity, 1 μM; Run 1, Run 2"}, "WEE1": {"target": "WEE1 (Homo sapiens, UniProt P30291)", "assay": "biochemical", "details": "read-out: % enzyme activity, 1 μM; Run 1, Run 2"}, "RSK4": {"target": "RSK4 (Homo sapiens, UniProt Q9UK32)", "details": "1 μM; Run 1, Run 2"}, "PKAcb [2]": {"target": "T2, PKAcb (Homo sapiens, UniProt P22694)", "assay": "biochemical", "details": "read-out: % enzyme activity, 1 μM; Run 1, Run 2"}, "IRAK1": {"target": "IRAK1 (Homo sapiens, UniProt P51617)", "details": "1 μM; Run 1, Run 2"}, "SSTK/TSSK6": {"target": "SSTK/TSSK6 (Homo sapiens, UniProt Q9BXA6)", "assay": "biochemical", "details": "read-out: % enzyme activity, 1 μM; Run 1, Run 2"}, "STK16": {"target": "STK16 (Homo sapiens, UniProt O75716)", "assay": "biochemical", "details": "read-out: % enzyme activity, 1 μM; Run 1, Run 2"}, "GLK/MAP4K3": {"target": "GLK/MAP4K3 (Homo sapiens, UniProt Q8IVH8)", "details": "1 μM; Run 1, Run 2"}, "EGFR": {"target": "EGFR (Homo sapiens, UniProt P00533)", "details": "1 μM; Run 1, Run 2"}, "PRKX": {"target": "PRKX (Homo sapiens, UniProt P51817)", "details": "1 μM; Run 1, Run 2"}, "PAK4": {"target": "PAK4 (Homo sapiens, UniProt O96013)", "details": "1 μM; Run 1, Run 2"}, "PKMYT1": {"target": "PKMYT1 (Homo sapiens, UniProt Q99640)", "details": "1 μM; Run 1, Run 2"}, "SRPK2": {"target": "SRPK2 (Homo sapiens, UniProt P78362)", "details": "1 μM; Run 1, Run 2"}, "GRK3": {"target": "GRK3 (Homo sapiens, UniProt P35626)", "details": "1 μM; Run 1, Run 2"}, "CDK19/cyclin C": {"target": "CDK19/cyclin C (Homo sapiens, UniProt Q9BWU1)", "assay": "biochemical", "details": "read-out: % enzyme activity, 1 μM; Run 1, Run 2"}, "ROS/ROS1": {"target": "ROS/ROS1 (Homo sapiens, UniProt P08922)", "details": "1 μM; Run 1, Run 2"}, "PKA": {"target": "PKA (Homo sapiens, UniProt P17612)", "details": "1 μM; Run 1, Run 2"}, "GRK4": {"target": "GRK4 (Homo sapiens, UniProt P32298)", "assay": "biochemical", "details": "read-out: % enzyme activity, 1 μM; Run 1, Run 2"}, "CLK3": {"target": "CLK3 (Homo sapiens, UniProt P49761)", "assay": "biochemical", "details": "read-out: % enzyme activity, 1 μM; Run 1, Run 2"}, "LRRK2": {"target": "LRRK2 (Homo sapiens, UniProt Q5S007)", "assay": "biochemical", "details": "read-out: % enzyme activity, 1 μM; Run 1, Run 2"}, "MLK4": {"target": "MLK4 (Homo sapiens, UniProt Q5TCX8)", "assay": "biochemical", "details": "read-out: % enzyme activity, 1 μM; Run 1, Run 2"}, "CAMK2b": {"target": "CAMK2b (Homo sapiens, UniProt Q13554)", "details": "1 μM; Run 1, Run 2"}, "HIPK2": {"target": "HIPK2 (Homo sapiens, UniProt Q9H2X6)", "assay": "biochemical", "details": "read-out: % enzyme activity, 1 μM; Run 1, Run 2"}, "TXK": {"target": "TXK (Homo sapiens, UniProt P42681)", "assay": "biochemical", "details": "read-out: % enzyme activity, 1 μM; Run 1, Run 2"}, "PKCmu/PRKD1": {"target": "PKCmu/PRKD1 (Homo sapiens, UniProt Q15139)", "assay": "biochemical", "details": "read-out: % enzyme activity, 1 μM; Run 1, Run 2"}, "GRK2": {"target": "GRK2 (Homo sapiens, UniProt P25098)", "details": "1 μM; Run 1, Run 2"}, "PIM3": {"target": "PIM3 (Homo sapiens, UniProt Q86V86)", "assay": "biochemical", "details": "read-out: % enzyme activity, 1 μM; Run 1, Run 2"}, "MLK2/MAP3K10 [3]": {"target": "T1, MLK2/MAP3K10", "details": "1 μM; Run 1, Run 2"}, "PKAcb [4]": {"target": "T2, PKAcb", "details": "1 μM; Run 1, Run 2"}, "PIM2": {"target": "PIM2 (Homo sapiens, UniProt Q9P1W9)", "assay": "biochemical", "details": "read-out: % enzyme activity, 1 μM; Run 1, Run 2"}, "AKT3": {"target": "AKT3 (Homo sapiens, UniProt Q9Y243)", "assay": "biochemical", "details": "read-out: % enzyme activity, 1 μM; Run 1, Run 2"}, "STK33": {"target": "STK33 (Homo sapiens, UniProt Q9BYT3)", "details": "1 μM; Run 1, Run 2"}, "PHKg2": {"target": "PHKg2 (Homo sapiens, UniProt P15735)", "assay": "biochemical", "details": "read-out: % enzyme activity, 1 μM; Run 1, Run 2"}},
  "data": [
    {"smiles": "COc1cc(-c2cncc(-c3ccc(N4CCN(C(C)C)CC4)cc3)c2C)cc(F)c1C(N)=O", "note": "[Compound 26b, 2-Fluoro-4-(5-(4-(4-isopropylpiperazin-1-yl)phenyl)-4-methylpyridin-3-yl)-6-methoxybenzamide]", "values": [
      {"measurement": "% enzyme activity", "setting": "CDK17/cyclin Y (PCTK2)", "value": 93.99, "unit": "%"},
      {"measurement": "% enzyme activity", "setting": "MAST3", "value": 97.29, "unit": "%"},
      {"measurement": "% enzyme activity", "setting": "EPHA2", "value": 98.97, "unit": "%"},
      {"measurement": "remaining activity at 1 µM", "setting": "EPHA6", "value": 103, "unit": "%"},
      {"measurement": "% enzyme activity", "setting": "SRMS", "value": 97.08, "unit": "%"},
      {"measurement": "remaining activity at 1 µM", "setting": "MLK2/MAP3K10 [1]", "value": 115, "unit": "%"},
      {"measurement": "% enzyme activity", "setting": "AKT2", "value": 93.58, "unit": "%"},
      {"measurement": "remaining activity at 1 µM", "setting": "CDK6/cyclin D3", "value": 89.5, "unit": "%"},
      {"measurement": "remaining activity at 1 µM", "setting": "JNK2", "value": 91.3, "unit": "%"},
      {"measurement": "% enzyme activity", "setting": "DLK/MAP3K12", "value": 94.38, "unit": "%"},
      {"measurement": "remaining activity at 1 µM", "setting": "MARK4", "value": 83.5, "unit": "%"},
      {"measurement": "remaining activity at 1 µM", "setting": "WEE1", "value": 129, "unit": "%"},
      {"measurement": "% enzyme activity", "setting": "RSK4", "value": 94.31, "unit": "%"},
      {"measurement": "remaining activity at 1 µM", "setting": "PKAcb [2]", "value": 99.4, "unit": "%"},
      {"measurement": "% enzyme activity", "setting": "IRAK1", "value": 100.16, "unit": "%"},
      {"measurement": "remaining activity at 1 µM", "setting": "SSTK/TSSK6", "value": 110, "unit": "%"},
      {"measurement": "remaining activity at 1 µM", "setting": "STK16", "value": 102, "unit": "%"},
      {"measurement": "% enzyme activity", "setting": "GLK/MAP4K3", "value": 83.55, "unit": "%"},
      {"measurement": "% enzyme activity", "setting": "EGFR", "value": 101.05, "unit": "%"},
      {"measurement": "% enzyme activity", "setting": "PRKX", "value": 96.87, "unit": "%"},
      {"measurement": "% enzyme activity", "setting": "PAK4", "value": 103.30, "unit": "%"},
      {"measurement": "% enzyme activity", "setting": "PKMYT1", "value": 121.94, "unit": "%"},
      {"measurement": "% enzyme activity", "setting": "SRPK2", "value": 95.75, "unit": "%"},
      {"measurement": "% enzyme activity", "setting": "GRK3", "value": 96.85, "unit": "%"},
      {"measurement": "remaining activity at 1 µM", "setting": "CDK19/cyclin C", "value": 82.4, "unit": "%"},
      {"measurement": "% enzyme activity", "setting": "ROS/ROS1", "value": 95.52, "unit": "%"},
      {"measurement": "% enzyme activity", "setting": "PKA", "value": 97.30, "unit": "%"},
      {"measurement": "remaining activity at 1 µM", "setting": "GRK4", "value": 91.8, "unit": "%"},
      {"measurement": "remaining activity at 1 µM", "setting": "CLK3", "value": 92.8, "unit": "%"},
      {"measurement": "remaining activity at 1 µM", "setting": "LRRK2", "value": 74.1, "unit": "%"},
      {"measurement": "remaining activity at 1 µM", "setting": "MLK4", "value": 91.2, "unit": "%"},
      {"measurement": "% enzyme activity", "setting": "CAMK2b", "value": 86.76, "unit": "%"},
      {"measurement": "remaining activity at 1 µM", "setting": "HIPK2", "value": 102, "unit": "%"},
      {"measurement": "remaining activity at 1 µM", "setting": "TXK", "value": 104, "unit": "%"},
      {"measurement": "remaining activity at 1 µM", "setting": "PKCmu/PRKD1", "value": 93.3, "unit": "%"},
      {"measurement": "% enzyme activity", "setting": "GRK2", "value": 105.76, "unit": "%"},
      {"measurement": "remaining activity at 1 µM", "setting": "PIM3", "value": 107, "unit": "%"},
      {"measurement": "% enzyme activity", "setting": "MLK2/MAP3K10 [3]", "value": 106.44, "unit": "%"},
      {"measurement": "% enzyme activity", "setting": "PKAcb [4]", "value": 98.30, "unit": "%"},
      {"measurement": "remaining activity at 1 µM", "setting": "PIM2", "value": 98, "unit": "%"},
      {"measurement": "remaining activity at 1 µM", "setting": "AKT3", "value": 98.5, "unit": "%"},
      {"measurement": "% enzyme activity", "setting": "STK33", "value": 96.42, "unit": "%"},
      {"measurement": "remaining activity at 1 µM", "setting": "PHKg2", "value": 95.8, "unit": "%"}
    ]}
  ]
}
